Results are given in words; binding and its absence hold for the method and conditions named. Binding seen in cells or lysates may run through a third protein. Some entries that bind do so weakly or less than the wild type.
Biological target: T7-tagged HNRNPA1 (HEK293T) (UniProt P09651)
Assay: co-IP; HEK293T cells co-expressing T7-tagged HNRNPA1 and one of nine GFP-tagged PRMT family members

Amino acid sequences for entries named in this document (tags omitted).
UniProt P09651: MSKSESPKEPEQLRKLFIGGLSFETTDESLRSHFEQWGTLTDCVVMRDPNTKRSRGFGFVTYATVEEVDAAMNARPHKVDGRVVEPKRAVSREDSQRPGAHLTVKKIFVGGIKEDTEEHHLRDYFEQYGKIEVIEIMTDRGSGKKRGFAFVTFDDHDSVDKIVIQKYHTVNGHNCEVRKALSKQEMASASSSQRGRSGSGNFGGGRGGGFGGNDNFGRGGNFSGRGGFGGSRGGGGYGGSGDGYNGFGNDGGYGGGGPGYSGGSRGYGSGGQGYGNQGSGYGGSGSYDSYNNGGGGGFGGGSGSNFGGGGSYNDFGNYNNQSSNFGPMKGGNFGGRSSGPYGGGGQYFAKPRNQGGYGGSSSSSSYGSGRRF
UniProt Q99873: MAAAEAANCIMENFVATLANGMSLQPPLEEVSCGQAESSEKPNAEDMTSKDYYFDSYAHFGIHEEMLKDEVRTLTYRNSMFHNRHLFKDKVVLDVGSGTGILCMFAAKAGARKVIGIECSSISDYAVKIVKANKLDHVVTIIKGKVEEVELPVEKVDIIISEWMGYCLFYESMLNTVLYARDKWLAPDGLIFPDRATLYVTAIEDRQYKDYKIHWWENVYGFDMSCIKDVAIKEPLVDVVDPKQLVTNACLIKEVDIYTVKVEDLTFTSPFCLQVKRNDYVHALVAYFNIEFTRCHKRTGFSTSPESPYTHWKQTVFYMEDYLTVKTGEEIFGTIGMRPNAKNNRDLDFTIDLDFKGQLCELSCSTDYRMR

Which binding does the source give for “GFP-tagged PRMT1 (from UniProt Q99873 1-371) (enzyme)” here?
Its binding is “binds”.

— publication PMC11438962
